# Test results: PubChem BioAssay AID651804 (National Center for Advancing Translational Sciences (NCATS), 2012)
# Protein sequences, listed by entry. Tags and fused reporters are not part of them. Lines headed by an entry give the natural chain unless they say otherwise; changes in a name come on top.
# UniProt P11308: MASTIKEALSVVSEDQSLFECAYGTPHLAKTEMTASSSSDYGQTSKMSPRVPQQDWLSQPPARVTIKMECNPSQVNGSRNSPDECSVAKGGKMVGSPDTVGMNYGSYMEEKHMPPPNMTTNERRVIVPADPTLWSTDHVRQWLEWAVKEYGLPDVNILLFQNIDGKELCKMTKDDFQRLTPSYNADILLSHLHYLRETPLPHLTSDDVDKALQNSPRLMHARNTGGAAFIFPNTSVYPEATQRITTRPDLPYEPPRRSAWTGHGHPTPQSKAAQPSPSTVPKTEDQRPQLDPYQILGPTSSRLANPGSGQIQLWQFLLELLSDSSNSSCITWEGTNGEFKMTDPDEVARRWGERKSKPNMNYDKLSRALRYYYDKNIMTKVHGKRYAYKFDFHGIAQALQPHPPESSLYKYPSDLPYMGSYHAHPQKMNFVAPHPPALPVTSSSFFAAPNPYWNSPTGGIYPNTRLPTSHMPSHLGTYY
# Screen size: about 1,200 compounds; about 20 (2%) were called active. About 23% were inconclusive and are not listed. Calls follow the shape of the dose curve; as a rule, active = well fitted inhibition curve with a large enough effect; inconclusive = small, poorly fitted or top-dose-only effect; inactive = no such curve, though single readings can be large or run the other way. The list shows a part of the results.
# Biological target: Transcriptional regulator ERG (Homo sapiens) (UniProt P11308)
# Test: qHTS for Small Molecule Inhibitors of the ERG Ets/DNA interaction: HTRF assay against cherry picks
# Conditions: His-ERG Ets domain with biotin-DNA; series mostly up to 154 µM; activity change, negative = inhibition: at the top concentration
# How it was run: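 Compounds were incubated 10 min at RT with ERG Ets domain and biotinylated DNA (each added as 200 nM solution) in pH 7.5 Tris/KCl/EDTA/DTT buffer. Binding was read as FRET (ex 320, em 615 and 665 nm) between anti-His donor and streptavidin acceptor.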
# Potency is read from the fitted curve at half-maximal effect.
Compound,"activity change, negative = inhibition",Potency
Cc1ccc(NC(=O)c2cc3cc(OC(F)(F)F)ccc3[nH]2)cc1,inactive: -19%,–
CCN(Cc1ccccc1)C(=O)COC(=O)CNC(=O)c1ccc(C)s1,inactive: 8.54%,–
CCOc1ccc(N2C(=O)CC(N3CCN(C(=O)c4ccco4)CC3)C2=O)cc1 (centres undefined),inactive: -17.9%,–
COc1ccc(NC(=S)Nc2ccc(N(C)C(C)=O)cc2)cc1,inactive: -5.52%,–
COc1ccc(C(=O)N2CCc3ccc(NC(=O)c4ccccn4)cc3C2)cc1F,inactive: -6.05%,–
Cc1nc2ccccc2c(=O)n1NC(=O)c1cccnc1Cl,inactive: -8.28%,–
NCCCC(=O)O,inactive: -2.81%,–
CC(C)(O)CN(CCCNC(=S)Nc1ccccc1)C(=S)Nc1ccccc1,inactive: -4.51%,–
CC(CCC(=O)O)C1CCC2C3CCC4C[C@H](O)CCC4(C)C3CC(=O)C12C (some centres undefined),inactive: 7.37%,–
O=C(COc1ccccc1)Nc1ccc2c(c1)Cc1cc(NC(=O)COc3ccccc3)ccc1-2,inactive: -25.6%,–
C=COc1ccc(N2C(=O)c3ccccc3OC2C)cc1 (centres undefined),inactive: 5.52%,–
O=C(NCCCc1ccccc1)C(=O)NCC1OCCN1S(=O)(=O)c1ccccc1 (centres undefined),inactive: -28.9%,–
CC(Oc1ccccc1)C(=O)Nc1ccc(S(=O)(=O)N2CCN(C)CC2)cc1 (centres undefined),inactive: -39.9%,–
CCOc1cc(S(=O)(=O)n2ccc(C)n2)ccc1Br,inactive: -1.7%,–
COc1ccccc1NC(=O)C(=O)N/N=C(\C)CC(=O)Nc1ccccn1,inactive: -22.8%,–
Cc1cc(N)ccc1-n1c(C)ccc1C,inactive: -13.7%,–
O=C(CSc1ncccc1C(=O)O)NCCC1=CCCCC1,inactive: -3.45%,–
COc1ccc(CCC(=O)N2CCN(S(=O)(=O)c3ccc(C)cc3)CC2)cc1,inactive: 3.55%,–
Clc1ccc(-c2csc(N/N=C/c3ccco3)n2)cc1,inactive: -49.8%,–
COc1cc(OC)cc(C(=O)OCC(=O)N2CCCC2)c1,inactive: 0.212%,–
COc1ccc(OC)c(NC(=O)c2cccc(NC(=O)c3ccccc3)c2)c1,inactive: -0.212%,–
Cc1ccc(C=Nc2cccnc2N)cc1,inactive: -24.9%,–
CC(=O)c1ccc(N(CC(=O)NC2CCS(=O)(=O)C2)S(=O)(=O)c2ccc(C)cc2)cc1 (centres undefined),inactive: -0.743%,–
Cc1ccc(C)c(N(CC(=O)NCc2ccco2)C(=O)CNS(=O)(=O)c2ccc(F)cc2)c1,inactive: -8.91%,–
CCn1c(CSc2ncn[nH]2)nc2cc(C(=O)O)ccc21,inactive: -12.9%,–
CCn1ncc(Br)c1C(=O)Nc1cccc(C(C)=O)c1,inactive: -2.65%,–
CCCNC(=O)C1=C(C)C(=O)OC12CCC(C)CC2 (centres undefined),inactive: 1.59%,–

# Part of the list above in another layout:
Compound | activity change, negative = inhibition | Potency
CC(CCC(=O)O)C1CCC2C3CCC4C[C@H](O)CCC4(C)C3CC(=O)C12C (some centres undefined) | inactive: 7.37% | –
O=C(COc1ccccc1)Nc1ccc2c(c1)Cc1cc(NC(=O)COc3ccccc3)ccc1-2 | inactive: -25.6% | –
C=COc1ccc(N2C(=O)c3ccccc3OC2C)cc1 (centres undefined) | inactive: 5.52% | –
O=C(NCCCc1ccccc1)C(=O)NCC1OCCN1S(=O)(=O)c1ccccc1 (centres undefined) | inactive: -28.9% | –

# (next part)

Compound,"activity change, negative = inhibition",Potency
O=C(NC1CCCC1)C1CCN(C(=O)c2cccc(Cl)c2)CC1,inactive: 29.1%,–
COc1ccccc1S(=O)(=O)Cc1ccc(C(=O)NCCN(C)C)o1,inactive: -8.28%,–
CCCCn1c(N)c(N(CC)C(=O)c2ccc(C#N)cc2)c(=O)[nH]c1=O,inactive: -8.75%,–
COCCn1c(C)cc(C(=O)CSc2nnnn2C2CCCC2)c1C,inactive: -29.1%,–
CCCNC(=O)CCC(=O)N1Cc2ccccc2Oc2ncccc21,inactive: -10.9%,–
COc1ccc(C(=O)n2nc(C)c(Br)c2C)cc1OC,inactive: -11.2%,–
CN(C)Cc1cc2ccccc2c2c1COC2,inactive: -6.68%,–
Cc1cc(C)c2nc(NC(=O)[C@@H](NC(=O)c3cccc(S(=O)(=O)N4CCOCC4)c3)C(C)C)sc2c1,inactive: 23.9%,–
Cc1noc(C)c1C(=O)Nc1cccnc1,inactive: -25.7%,–
CCOc1ccc(NC(=O)CN(C)C(=O)c2ccccc2CCc2ccccc2)cc1OCC,inactive: 3.66%,–
Oc1ccccc1CN1CCCC(N2CCN(c3cccc(C(F)(F)F)c3)CC2)C1 (centres undefined),inactive: -11.6%,–
CC(=O)c1cccc(NC(=O)C(C)OC(=O)c2ccc3ncsc3c2)c1 (centres undefined),inactive: 5.57%,–
CCC(c1nnnn1Cc1ccc(F)cc1)N1CCN(C)CC1 (centres undefined),inactive: -23.8%,–
CC(C)C(=O)NC(=S)Nc1ccc(S(=O)(=O)Nc2ccccc2)cc1,inactive: -0.159%,–
COc1ccc([C@@H](NC(=O)OC(C)(C)C)C(=O)OC(C)(C)C)cc1,inactive: -22.7%,–
COC(=O)c1ccccc1NS(=O)(=O)c1ccc2c(c1)CCCN2C(C)=O,inactive: -22%,–
CC(CN1CCOCC1)(NS(=O)(=O)c1ccccc1)c1ccccc1 (centres undefined),inactive: -29.4%,–
CSc1ccc(S(=O)(=O)N2CCC(C(=O)NCc3ccncc3)CC2)cc1,inactive: -1.01%,–
C[N+](C)(C)CCCCCC[N+](C)(C)C,inactive: -26.6%,–
Cc1cccc([N+](=O)[O-])c1C(=O)O,inactive: -10.6%,–
COC(=O)Cn1c(=NC(=O)C2COc3ccccc3O2)sc2cc(S(N)(=O)=O)ccc21 (centres undefined),inactive: -7.75%,–
O=C(NC1CCCCC1)C(c1ccc(O)cc1)N(C(=O)c1cnccn1)c1cccc(F)c1 (centres undefined),inactive: -14.3%,–
Cn1c(CNC(=O)c2cccs2)n[nH]c1=S,inactive: -24.1%,–
Cc1csc(=O)n1CCC(=O)OCC(=O)Nc1ncc(Cl)cc1Cl,inactive: -22.8%,–
Cc1cc(C(C)(C)C)c(O)c(C)c1CC1=NCCN1,inactive: -22.8%,–
CCCN1C[C@H](CSC)C[C@@H]2c3cccc4[nH]cc(c34)C[C@H]21,–,active: 14.1 µM
O=c1[nH]c2cc(F)ccc2c2ccc(F)cc12,inactive: -28.4%,–
